Measurements as given in US9469650B2, “Melampomagnolide B derivatives” (BOARD OF TRUSTEES OF THE UNIVERSITY OF ARKANSAS, priority 2013, dated 2016).
At least one read-out could not be matched to a standard name with certainty.

What was measured:
IGROV1 = assay: panel of 60 human tumor cell lines, growth inhibition (Ovarian Cancer); settings: IGROVI
MDA-MB-435 = assay: panel of 60 human tumor cell lines, growth inhibition (Melanoma)
UACC-62 = assay: as above
SK-OV-3 = assay: panel of 60 human tumor cell lines, growth inhibition (Ovarian Cancer)
NCI-H460 = assay: panel of 60 human tumor cell lines, growth inhibition (Non-Small Cell Lung Cancer)
NCI/ADR-RES = assay: panel of 60 human tumor cell lines, growth inhibition (Ovarian Cancer)
SW-620 = assay: panel of 60 human tumor cell lines, growth inhibition (Colon Cancer)
U251 = assay: panel of 60 human tumor cell lines, growth inhibition (CNS Cancer)
BT-549 = assay: panel of 60 human tumor cell lines, growth inhibition (Breast Cancer); settings: BT-549
OVCAR-4 = assay: panel of 60 human tumor cell lines, growth inhibition (Ovarian Cancer); type: cell-based
NCI-H23 = assay: panel of 60 human tumor cell lines, growth inhibition (Non-Small Cell Lung Cancer)
ACHN = assay: panel of 60 human tumor cell lines, growth inhibition (Renal Cancer)
OVCAR-8 = assay: panel of 60 human tumor cell lines, growth inhibition (Ovarian Cancer)
HOP-92 = assay: panel of 60 human tumor cell lines, growth inhibition (Non-Small Cell Lung Cancer)
CAKI-1 = assay: panel of 60 human tumor cell lines, growth inhibition (Renal Cancer)
DU-145 = assay: panel of 60 human tumor cell lines, growth inhibition (Prostate Cancer)
NCI-H522 = assay: panel of 60 human tumor cell lines, growth inhibition (Non-Small Cell Lung Cancer)
NCI-H226 = assay: as above
MOLT-4 = assay: panel of 60 human tumor cell lines, growth inhibition (Leukemia)
MCF7 = assay: panel of 60 human tumor cell lines, growth inhibition (Breast Cancer)
HCT-15 = assay: panel of 60 human tumor cell lines, growth inhibition (Colon Cancer)

Compound: C=C1C(=O)O[C@H]2[C@H]1CC/C(COC(=O)NCCN1CCCC1)=C\CC[C@@]1(C)O[C@@H]21 [JVM 59, ((1aR,7aS,10aS,10bS,E)-1a-methyl-8-methylene-9-oxo-1a,2,3,6,7,7a,8,9,10a,10b-decahydrooxireno[2′,3′:9,10]cyclodeca[1,2-b]furan-5-yl)methyl-(2-(pyrrolidin-1-yl)ethyl)carbamate]
- Percent Growth (IGROV1; Log10 Concentration −4.0): −63%
- Percent Growth (IGROV1; Log10 Concentration −5.0): 17%
- Percent Growth (IGROV1; Log10 Concentration −6.0): 102%
- Percent Growth (IGROV1; Log10 Concentration −7.0): 97%
- Percent Growth (IGROV1; Log10 Concentration −8.0): 106%
- Percent Growth (MDA-MB-435; Log10 Concentration −4.0): −84%
- Percent Growth (MDA-MB-435; Log10 Concentration −5.0): 40%
- Percent Growth (MDA-MB-435; Log10 Concentration −6.0): 94%
- Percent Growth (MDA-MB-435; Log10 Concentration −7.0): 99%
- Percent Growth (MDA-MB-435; Log10 Concentration −8.0): 101%
- Percent Growth (UACC-62; Log10 Concentration −4.0): −91%
- Percent Growth (UACC-62; Log10 Concentration −5.0): 70%
- Percent Growth (UACC-62; Log10 Concentration −6.0): 94%
- Percent Growth (UACC-62; Log10 Concentration −7.0): 99%
- Percent Growth (UACC-62; Log10 Concentration −8.0): 97%
- Percent Growth (SK-OV-3; Log10 Concentration −4.0): 8%
- Percent Growth (SK-OV-3; Log10 Concentration −5.0): 87%
- Percent Growth (SK-OV-3; Log10 Concentration −6.0): 99%
- Percent Growth (SK-OV-3; Log10 Concentration −7.0): 96%
- Percent Growth (SK-OV-3; Log10 Concentration −8.0): 97%
- Percent Growth (NCI-H460; Log10 Concentration −4.0): −40%
- Percent Growth (NCI-H460; Log10 Concentration −5.0): 98%
- Percent Growth (NCI-H460; Log10 Concentration −6.0): 102%
- Percent Growth (NCI-H460; Log10 Concentration −7.0): 104%
- Percent Growth (NCI-H460; Log10 Concentration −8.0): 103%
- Percent Growth (NCI/ADR-RES; Log10 Concentration −4.0): 52%
- Percent Growth (NCI/ADR-RES; Log10 Concentration −5.0): 95%
- Percent Growth (NCI/ADR-RES; Log10 Concentration −6.0): 102%
- Percent Growth (NCI/ADR-RES; Log10 Concentration −7.0): 100%
- Percent Growth (NCI/ADR-RES; Log10 Concentration −8.0): 99%
- Percent Growth (SW-620; Log10 Concentration −4.0): −81%
- Percent Growth (SW-620; Log10 Concentration −5.0): 13%
- Percent Growth (SW-620; Log10 Concentration −6.0): 93%
- Percent Growth (SW-620; Log10 Concentration −7.0): 99%
- Percent Growth (SW-620; Log10 Concentration −8.0): 99%
- Percent Growth (U251; Log10 Concentration −4.0): −3%
- Percent Growth (U251; Log10 Concentration −5.0): 89%
- Percent Growth (U251; Log10 Concentration −6.0): 94%
- Percent Growth (U251; Log10 Concentration −7.0): 95%
- Percent Growth (U251; Log10 Concentration −8.0): 96%
- Percent Growth (BT-549; Log10 Concentration −4.0): −93%
- Percent Growth (BT-549; Log10 Concentration −5.0): 32%
- Percent Growth (BT-549; Log10 Concentration −6.0): 88%
- Percent Growth (BT-549; Log10 Concentration −7.0): 95%
- Percent Growth (BT-549; Log10 Concentration −8.0): 88%
- Percent Growth (OVCAR-4; Log10 Concentration −4.0): −81%
- Percent Growth (OVCAR-4; Log10 Concentration −5.0): 52%
- Percent Growth (OVCAR-4; Log10 Concentration −7.0): 93%
- Percent Growth (OVCAR-4; Log10 Concentration −8.0): 93%
- Percent Growth (NCI-H23; Log10 Concentration −4.0): −64%
- Percent Growth (NCI-H23; Log10 Concentration −5.0): 81%
- Percent Growth (NCI-H23; Log10 Concentration −6.0): 96%
- Percent Growth (NCI-H23; Log10 Concentration −7.0): 92%
- Percent Growth (NCI-H23; Log10 Concentration −8.0): 92%
- Percent Growth (ACHN; Log10 Concentration −4.0): −97%
- Percent Growth (ACHN; Log10 Concentration −5.0): 19%
- Percent Growth (ACHN; Log10 Concentration −6.0): 92%
- Percent Growth (ACHN; Log10 Concentration −7.0): 98%
- Percent Growth (ACHN; Log10 Concentration −8.0): 103%
- Percent Growth (OVCAR-8; Log10 Concentration −4.0): −69%
- Percent Growth (OVCAR-8; Log10 Concentration −5.0): 67%
- Percent Growth (OVCAR-8; Log10 Concentration −6.0): 97%
- Percent Growth (OVCAR-8; Log10 Concentration −7.0): 94%
- Percent Growth (OVCAR-8; Log10 Concentration −8.0): 97%
- Percent Growth (HOP-92; Log10 Concentration −4.0): −89%
- Percent Growth (HOP-92; Log10 Concentration −5.0): −10%
- Percent Growth (HOP-92; Log10 Concentration −6.0): 83%
- Percent Growth (HOP-92; Log10 Concentration −7.0): 83%
- Percent Growth (HOP-92; Log10 Concentration −8.0): 82%
- Percent Growth (CAKI-1; Log10 Concentration −4.0): −87%
- Percent Growth (CAKI-1; Log10 Concentration −5.0): 42%
- Percent Growth (CAKI-1; Log10 Concentration −6.0): 91%
- Percent Growth (CAKI-1; Log10 Concentration −7.0): 95%
- Percent Growth (CAKI-1; Log10 Concentration −8.0): 95%
- Percent Growth (DU-145; Log10 Concentration −4.0): −96%
- Percent Growth (DU-145; Log10 Concentration −5.0): 42%
- Percent Growth (DU-145; Log10 Concentration −6.0): 102%
- Percent Growth (DU-145; Log10 Concentration −7.0): 100%
- Percent Growth (DU-145; Log10 Concentration −8.0): 101%
- Percent Growth (NCI-H522; Log10 Concentration −4.0): −67%
- Percent Growth (NCI-H522; Log10 Concentration −5.0): −33%
- Percent Growth (NCI-H522; Log10 Concentration −6.0): 76%
- Percent Growth (NCI-H522; Log10 Concentration −7.0): 83%
- Percent Growth (NCI-H522; Log10 Concentration −8.0): 80%
- Percent Growth (NCI-H226; Log10 Concentration −4.0): 28%
- Percent Growth (NCI-H226; Log10 Concentration −5.0): 79%
- Percent Growth (NCI-H226; Log10 Concentration −6.0): 90%
- Percent Growth (NCI-H226; Log10 Concentration −7.0): 81%
- Percent Growth (NCI-H226; Log10 Concentration −8.0): 94%
- Percent Growth (MOLT-4; Log10 Concentration −4.0): −53%
- Percent Growth (MOLT-4; Log10 Concentration −5.0): 17%
- Percent Growth (MOLT-4; Log10 Concentration −6.0): 89%
- Percent Growth (MOLT-4; Log10 Concentration −7.0): 92%
- Percent Growth (MOLT-4; Log10 Concentration −8.0): 100%
- Percent Growth (MCF7; Log10 Concentration −4.0): −67%
- Percent Growth (MCF7; Log10 Concentration −5.0): 20%
- Percent Growth (MCF7; Log10 Concentration −6.0): 93%
- Percent Growth (MCF7; Log10 Concentration −7.0): 98%
- Percent Growth (MCF7; Log10 Concentration −8.0): 95%
- Percent Growth (HCT-15; Log10 Concentration −4.0): −55%
- Percent Growth (HCT-15; Log10 Concentration −5.0): 66%
- Percent Growth (HCT-15; Log10 Concentration −6.0): 92%
- Percent Growth (HCT-15; Log10 Concentration −7.0): 97%
- Percent Growth (HCT-15; Log10 Concentration −8.0): 96%
